Values of other authors as cited in paper PMC9931008 (Journal of Food and Drug Analysis, 2022).

Settings: humans; cited from earlier work

In the case of `COC(=O)C1=C(C)NC(C)=C(C(=O)OC)C1c1ccccc1[N+](=O)[O-]` [Nifedipine, nifedipine], the absolute bioavailability is given as 40–50%, the “absorption from the gastrointestinal tract” value is given as ~100% and the “intestinal elimination share of the first-pass metabolism” value is given as 36–52%.
